Assay results reported in PubChem BioAssay AID2685 (National Center for Advancing Translational Sciences (NCATS), 2010).
About 2,100 (0.66%) of roughly 320,000 compounds were called active. The inconclusive results got no clear call from the source; some entries with a clear call stand among them for comparison. Calls follow the shape of the dose curve; as a rule, active = well fitted inhibition curve with a large enough effect in the signal ratio, with a control signal flat (not every such curve was filed as active); inconclusive = small, poorly fitted or top-dose-only effect, or effect the other way, or a change in a side signal; inactive = flat fitted curve, though single readings scatter; the % refers to the signal ratio. Potencies of inconclusive entries are doubtful fits and often do not repeat.

Assay: qHTS Assay for Lipid Storage Modulators in Drosophila S3 Cells
Details: BODIPY lipid droplet fluorescence, 18-24 h, cells fed with added oleic acid; lipid storage change, negative = inhibition: at 46.1 µM (top of the series) unless noted
How it was run: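 Drosophila S3 cells got compounds at several concentrations plus oleic acid (400 uM solution). Laser-scanning cytometry with 488 nm excitation read lipid droplets at 500-530 nm and cells at 575-640 nm. Percent activity was relative to 20 uM Triacsin C.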
% is scaled to controls: 0 for no effect and ±100 for the full control effect; potency is read from the fitted curve at half-maximal effect.

SMILES	lipid storage change, negative = inhibition	Potency	outcome
Cc1cc(C)c(S(=O)(=O)N2CCN(C(=O)CCOc3ccccc3C)CC2)c(C)c1	inconclusive: 19.3%		
O=C(CN1C(=O)C2CC=CCC2C1=O)Nc1nc(-c2ccc(F)cc2)cs1 (configuration not stated)	inconclusive: 17.5%		
CC1CN(S(=O)(=O)c2ccc(C(=O)N3c4ccccc4CC3C)cc2)CC(C)O1 (configuration not stated)		inconclusive: 0.13 µM [activator, full curve]	
CC(=O)C(Sc1nccc(-c2cccs2)n1)C(C)=O	inconclusive: -18.5%		
Cc1oc(-c2ccc(Cl)cc2)nc1CN1CCC(C(=O)N2CCc3ccccc3C2)CC1	inconclusive: 49.4%		
Cc1ccc(NC(=O)c2cccc(N3C(=O)C4C5C=CC(C5)C4C3=O)c2)cc1C (configuration not stated)		inconclusive: 6.51 µM [activator, single point]	
COc1ccc(-c2nc(C#N)c(N3CCN(C(=O)c4ccco4)CC3)o2)cc1OC		inconclusive: 1.3 µM [falling, full curve]	
COc1ccc(Nc2nnc(-c3ccc(O)cc3)c3ccccc23)cc1			inactive [at 46.1 µM]
Brc1ccc(CNCC2CCCO2)cc1 (configuration not stated)	inconclusive: -4.45%		
CCN1CCN(Cc2ccc(NC(=O)c3cc(NC(=O)c4cc(-c5ccc(OC)cc5)n[nH]4)cc(OC)c3)cc2C(F)(F)F)CC1		inconclusive: 29.1 µM [falling, single point]	
CC(C)(C)NC(=O)C(c1ccc(O)cc1)N(Cc1ccco1)C(=O)CCC(=O)Nc1ccccn1 (configuration not stated)	inconclusive: -30.2%		
CCCn1c(C(C)Nc2nc(-c3cccc(Br)c3)cs2)nc2ccccc21 (configuration not stated)	inconclusive: 41.1%		
NC(=O)c1c(NC(=O)c2cccnc2)sc2c1CCCCC2		inconclusive: 0.651 µM [activator, single point]	
CCSc1nc(NCCN(C)C)c2c3c(sc2n1)COC(C)(CC)C3 (configuration not stated)	inconclusive: 7.46%		
O=C(Nc1ccc(N2C(=O)C3C4C=CC(C4)C3C2=O)cc1Cl)c1cccs1 (configuration not stated)	inconclusive: 4.41%		
Cc1ccc2c(c1)NC(=O)C(CC(=O)NCc1ccc(F)cc1)O2 (configuration not stated)		inconclusive: 3.66 µM [activator, single point]	
CCC(C)NC(=O)N[C@@H](CCSC)C(=O)O (some centres not stated)	inconclusive: 8.64%		
COc1ccc(/C=C/C(=O)NNC(=O)c2cc(C)oc2C)cc1	inconclusive: 29.9%		
O=C(COC(=O)c1ccc2c(c1)OCO2)Nc1ccccc1		inconclusive: 0.231 µM [falling, full curve]	
O=C(Nc1nnc(C2CC2)s1)c1cccs1	inconclusive: -28.8%		
O=C(CCCc1ccccc1)NCc1cccnc1		inconclusive: 5.8 µM [rising, single point]	
O=C(Nc1cccc(Cl)c1)Nc1cc(S(=O)(=O)N2CCOCC2)ccc1N1CCCC1		inconclusive: 0.058 µM [falling, full curve, poor fit]	
CCC(C)(C)NC(=O)C(c1ccccc1Cl)N(C(=O)CCC(=O)Nc1cc(C)on1)c1ccc(NC(C)=O)cc1 (configuration not stated)		inconclusive: 18.4 µM [activator, single point]	
Cc1ccc(NC(=O)CCC(=O)NNC(=O)c2cccs2)c(C)c1	inconclusive: -18.3%		

In another format: results already given.
CC(C)(C)NC(=O)C(c1ccc(O)cc1)N(Cc1ccco1)C(=O)CCC(=O)Nc1ccccn1 (configuration not stated)
  lipid storage change, negative = inhibition: inconclusive: -30.2%
CCCn1c(C(C)Nc2nc(-c3cccc(Br)c3)cs2)nc2ccccc21 (configuration not stated)
  lipid storage change, negative = inhibition: inconclusive: 41.1%

(listing goes on)

SMILES	lipid storage change, negative = inhibition	Potency	outcome
Cc1onc(-c2c(Cl)cccc2Cl)c1C(=O)c1ccc(F)cc1	inconclusive: 13.6%		
CCOc1cc(/C=N/NC(=O)c2ccncc2)ccc1OS(C)(=O)=O		inconclusive: 0.0259 µM [rising, full curve, poor fit]	
COC(=O)c1ccc(CN2C(=O)NC3(CCC(C)CC3)C2=O)cc1 (configuration not stated)	inconclusive: 23.2%		
CC(C)(C)c1ccc(Oc2ccc(NC(=O)C3CC=CCC3C(=O)O)cc2)cc1 (configuration not stated)	inconclusive: 1.72% [at 9.22 µM]		
C=C(C)COc1ccc(-c2nc(N)nc(C)c2-c2ccc(OC)cc2)c(O)c1		inconclusive: 5.17 µM [activator, partial curve]	
Nc1nc(N2CCN(c3cccc(Cl)c3)CC2)n[nH]1	inconclusive: -11.1%		
O=C(NC1CCN(Cc2ccccc2)C1)c1cccc(S(=O)(=O)N2CCOCC2)c1 (configuration not stated)	inconclusive		
Clc1ccc(OCCOCCNCc2ccccc2)cc1Cl	inconclusive: -6.44%		
CCOc1ccc(S(=O)(=O)NCCC(=O)NC(C)CCc2ccccc2)cc1 (configuration not stated)		inconclusive: 6.51 µM [falling, single point]	
O=C(c1ccco1)N1CCCC(N2CCN(c3cccc(C(F)(F)F)c3)CC2)C1 (configuration not stated)	inconclusive: 3.43%		
Oc1[nH]c2ccccc2c1N=Nc1ccccc1		inconclusive: 6.51 µM [falling, full curve]	
CCO[C@@H]1OC(C(=O)N2CCN(Cc3ccc4c(c3)OCO4)CC2)=C[C@H](c2coc3ccccc3c2=O)[C@H]1CCCO	inconclusive: -28.8%		
COc1ccc(-c2nc[nH]c2[N+](=O)[O-])cc1	inconclusive: 8.92%		
Fc1ccc(Br)cc1C1C=C(c2cccnc2)Nc2ncnn21 (configuration not stated)	inconclusive: 10.2% [at 9.22 µM]		
COc1ccc2[nH]c(=O)c(CN(Cc3cccs3)Cc3nnnn3Cc3ccccc3)cc2c1	inconclusive: 42.3%		
COc1ccc(CNC2CCCCC2C)c(OC)c1 (configuration not stated)	inconclusive: -5.88%		
CC(=O)N1c2ccc(S(=O)(=O)N3CCC(C(=O)NC4CCCCC4C)CC3)cc2CC1C (configuration not stated)		inconclusive: 0.58 µM [activator, single point]	
Cc1c(OCC(=O)N2CCC[C@@H]2C(=O)O)ccc2c3c(c(=O)oc12)CCC3	inconclusive: 11.3%		
CCN(CC)CCCNC(=O)c1ccc2c3n(nc2c1)-c1ccc(Cl)cc1CO3		inconclusive: 1.46 µM [activator, partial curve]	
CC(=O)N(c1ccccc1)C1CC(C)N(C(=O)c2ccccc2)c2ccccc21 (configuration not stated)	inconclusive: -11.7%		
O=C(CS(=O)(=O)c1ccc(C(F)(F)F)cn1)NNC(=O)c1ccccc1	inconclusive: -16.6%		
CC(C)c1ccc(N2CC(C)(C)C2=O)cc1	inconclusive: -5.99%		
COc1ccc(OC)c(S(=O)(=O)N2CCN(C(=O)NC3CCCCC3)CC2)c1		inconclusive: 29.1 µM [falling, single point]	
